This is an account of results in publication doi:10.1101/2023.01.03.522574.

The chains behind the UniProt entries cited, without tags or fusion partners. Residues count along the entry.
UniProt Q92692, residues 32-538: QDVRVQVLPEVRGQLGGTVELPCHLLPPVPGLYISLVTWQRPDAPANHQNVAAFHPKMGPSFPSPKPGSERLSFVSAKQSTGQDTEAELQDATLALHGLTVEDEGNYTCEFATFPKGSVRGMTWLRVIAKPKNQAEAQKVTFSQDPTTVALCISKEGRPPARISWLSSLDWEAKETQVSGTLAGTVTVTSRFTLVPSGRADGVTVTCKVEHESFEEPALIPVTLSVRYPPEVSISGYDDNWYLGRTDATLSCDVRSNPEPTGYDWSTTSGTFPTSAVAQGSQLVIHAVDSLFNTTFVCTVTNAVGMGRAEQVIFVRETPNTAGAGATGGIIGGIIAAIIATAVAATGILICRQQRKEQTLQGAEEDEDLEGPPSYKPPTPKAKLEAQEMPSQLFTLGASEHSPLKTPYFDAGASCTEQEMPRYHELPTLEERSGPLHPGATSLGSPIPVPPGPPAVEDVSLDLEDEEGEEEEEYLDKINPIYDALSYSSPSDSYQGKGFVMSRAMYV
UniProt P35968, residues 20-1356: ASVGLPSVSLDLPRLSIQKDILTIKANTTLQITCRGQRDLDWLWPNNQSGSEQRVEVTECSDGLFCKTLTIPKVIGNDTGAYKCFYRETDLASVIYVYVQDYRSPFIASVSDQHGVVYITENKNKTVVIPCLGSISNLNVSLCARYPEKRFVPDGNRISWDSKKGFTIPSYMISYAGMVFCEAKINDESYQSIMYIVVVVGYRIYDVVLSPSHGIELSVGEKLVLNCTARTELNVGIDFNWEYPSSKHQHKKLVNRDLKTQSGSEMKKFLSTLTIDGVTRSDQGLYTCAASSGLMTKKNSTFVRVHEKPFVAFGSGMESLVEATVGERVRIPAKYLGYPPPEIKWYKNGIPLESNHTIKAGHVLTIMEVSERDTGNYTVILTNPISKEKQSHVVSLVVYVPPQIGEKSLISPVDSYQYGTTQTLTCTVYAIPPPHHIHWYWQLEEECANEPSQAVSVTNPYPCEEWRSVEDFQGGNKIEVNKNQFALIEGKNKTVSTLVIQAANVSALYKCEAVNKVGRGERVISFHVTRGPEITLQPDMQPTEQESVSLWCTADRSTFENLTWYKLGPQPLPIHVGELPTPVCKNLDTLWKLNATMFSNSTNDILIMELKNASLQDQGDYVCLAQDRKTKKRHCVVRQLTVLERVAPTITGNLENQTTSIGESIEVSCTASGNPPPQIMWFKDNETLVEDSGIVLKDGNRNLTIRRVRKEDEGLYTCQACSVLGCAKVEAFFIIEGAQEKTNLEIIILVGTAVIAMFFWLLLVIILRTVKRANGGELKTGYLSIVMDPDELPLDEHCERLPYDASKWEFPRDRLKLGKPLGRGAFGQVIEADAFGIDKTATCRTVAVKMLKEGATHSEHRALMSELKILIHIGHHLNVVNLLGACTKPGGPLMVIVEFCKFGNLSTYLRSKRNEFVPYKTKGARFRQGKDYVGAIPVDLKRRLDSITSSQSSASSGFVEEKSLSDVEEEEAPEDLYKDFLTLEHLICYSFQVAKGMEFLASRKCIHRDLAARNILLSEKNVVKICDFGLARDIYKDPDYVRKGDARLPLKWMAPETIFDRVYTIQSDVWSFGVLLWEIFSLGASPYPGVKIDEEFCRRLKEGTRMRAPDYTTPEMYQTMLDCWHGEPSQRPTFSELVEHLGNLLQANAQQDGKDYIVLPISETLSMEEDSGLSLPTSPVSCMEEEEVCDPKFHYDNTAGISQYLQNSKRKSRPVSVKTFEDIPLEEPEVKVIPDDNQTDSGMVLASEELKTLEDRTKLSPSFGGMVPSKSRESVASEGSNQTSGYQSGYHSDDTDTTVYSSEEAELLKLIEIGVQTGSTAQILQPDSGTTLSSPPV

The target in the assay is T1, SCRB1 variant 1 (V1), overexpressed in EA.hy926 cells (human) (UniProt Q8WTV0).
T1 sequence: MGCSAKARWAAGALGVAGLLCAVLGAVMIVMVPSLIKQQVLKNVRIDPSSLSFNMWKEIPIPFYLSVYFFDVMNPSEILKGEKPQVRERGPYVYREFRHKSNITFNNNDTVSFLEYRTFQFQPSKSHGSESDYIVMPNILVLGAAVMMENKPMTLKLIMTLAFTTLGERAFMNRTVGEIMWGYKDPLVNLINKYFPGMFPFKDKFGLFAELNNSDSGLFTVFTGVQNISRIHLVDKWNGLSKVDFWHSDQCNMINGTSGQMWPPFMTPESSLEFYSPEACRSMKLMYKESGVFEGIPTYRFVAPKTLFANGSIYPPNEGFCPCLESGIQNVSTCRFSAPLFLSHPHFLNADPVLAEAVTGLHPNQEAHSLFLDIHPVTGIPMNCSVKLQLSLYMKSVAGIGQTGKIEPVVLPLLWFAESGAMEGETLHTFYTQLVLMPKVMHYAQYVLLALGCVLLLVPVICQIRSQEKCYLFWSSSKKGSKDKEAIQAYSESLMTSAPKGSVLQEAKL
Briefly: proximity labelling.

These are yes or no findings as the source states them, for the method shown. In cells and extracts the contact can be indirect. These calls come from enrichment with a bait or labelling near it, and not all partners need be listed. No binding means not detected with the bait.

As for “Nectin-2 (NECT2) (from UniProt Q92692 32-538) (receptor)”, the binding result is given as “no binding”.
With “Vascular endothelial growth factor receptor 2 (VGFR2) (from UniProt P35968 20-1356)”, the binding result was “no binding”.
